In paper PMC9292107:
No constants are given. Whether binding was seen depends on the method and setting. In cells and extracts the contact can be indirect. Some entries that bind do so weakly or less than the wild type.

By UniProt entry, the sequences of proteins in these tests, tags left out.
UniProt Q9ET78: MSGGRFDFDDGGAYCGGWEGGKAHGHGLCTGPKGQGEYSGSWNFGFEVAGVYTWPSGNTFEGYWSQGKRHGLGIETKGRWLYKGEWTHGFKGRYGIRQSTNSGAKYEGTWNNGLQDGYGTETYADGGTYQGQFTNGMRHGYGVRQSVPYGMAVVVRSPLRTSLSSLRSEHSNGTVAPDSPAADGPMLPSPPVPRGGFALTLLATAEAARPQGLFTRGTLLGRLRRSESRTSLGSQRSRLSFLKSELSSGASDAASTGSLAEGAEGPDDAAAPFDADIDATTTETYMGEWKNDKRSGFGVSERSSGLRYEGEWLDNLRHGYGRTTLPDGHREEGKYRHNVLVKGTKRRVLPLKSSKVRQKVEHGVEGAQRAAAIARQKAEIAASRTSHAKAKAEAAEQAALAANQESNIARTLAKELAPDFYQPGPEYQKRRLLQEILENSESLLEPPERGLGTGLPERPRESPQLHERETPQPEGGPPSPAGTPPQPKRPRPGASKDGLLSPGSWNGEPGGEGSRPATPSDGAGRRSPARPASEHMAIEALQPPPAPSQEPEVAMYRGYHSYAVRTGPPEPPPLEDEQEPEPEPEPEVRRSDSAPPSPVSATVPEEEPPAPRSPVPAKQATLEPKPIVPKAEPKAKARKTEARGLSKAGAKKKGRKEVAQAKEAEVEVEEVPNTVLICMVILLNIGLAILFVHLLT
UniProt P37804: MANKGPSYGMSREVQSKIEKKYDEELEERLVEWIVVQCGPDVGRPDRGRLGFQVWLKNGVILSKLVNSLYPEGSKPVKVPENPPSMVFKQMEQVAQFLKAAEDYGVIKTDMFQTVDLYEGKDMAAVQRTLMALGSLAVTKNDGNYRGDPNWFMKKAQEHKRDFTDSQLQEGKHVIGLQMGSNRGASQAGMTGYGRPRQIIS

Tests used:
Assay in all cases: co-IP; endogenous proteins in extracts of mouse cardiomyocytes / heart (WT; for actin-Cav3 also SM22α KO); IgG as negative control; Western blot
[1] = target: JPH2 (mouse (endogenous in cardiomyocytes)) (UniProt Q9ET78)
[2] = target: caveolin-3 (Cav3) (mouse (endogenous in cardiomyocytes)) (UniProt P51637)
[3] = target: Smooth muscle 22-alpha (SM22α) (mouse (endogenous in cardiomyocytes)) (UniProt P37804)

binding [1] | binding [2] | binding [3] | Molecule
binds | binds | – | Smooth muscle 22-alpha (SM22α) (from UniProt P37804 1-201)
– | – | binds | caveolin-3 (Cav3) (protein, UniProt P51637 1-151) MMTEEHTDLEARIIKDIHCKEIDLVNRDPKNINEDIVKVDFEDVIAEPEGTYSFDGVWKVSFTTFTVSKYWCYRLLSTLLGVPLALLWGFLFACISFCHIWAVVPCIKSYLIEIQCISHIYSLCIRTFCNPLFAALGQVCSNIKVVLRREG
